According to PMC8155215, “The splicing factor XAB2 interacts with ERCC1-XPF and XPG for R-loop processing”:
Results are given in words; binding and its absence hold for the method and conditions named. Binding seen in cells or lysates may run through a third protein. Here binding means that the protein was enriched with, or labelled near, the bait; the list need not be complete. Tags and fused reporters may be left off the sequences shown. Values belong to the binder of their own block, whether it stands above or below them.

Target: T1, biotin-tagged XAB2 (XPA-binding protein 2) from aviXab2+/+;birA knock-in mice (mouse) (UniProt Q9DCD2)
T1 sequence (chain, biotin on the 15aa Avitag (added in vivo by the BirA ligase)): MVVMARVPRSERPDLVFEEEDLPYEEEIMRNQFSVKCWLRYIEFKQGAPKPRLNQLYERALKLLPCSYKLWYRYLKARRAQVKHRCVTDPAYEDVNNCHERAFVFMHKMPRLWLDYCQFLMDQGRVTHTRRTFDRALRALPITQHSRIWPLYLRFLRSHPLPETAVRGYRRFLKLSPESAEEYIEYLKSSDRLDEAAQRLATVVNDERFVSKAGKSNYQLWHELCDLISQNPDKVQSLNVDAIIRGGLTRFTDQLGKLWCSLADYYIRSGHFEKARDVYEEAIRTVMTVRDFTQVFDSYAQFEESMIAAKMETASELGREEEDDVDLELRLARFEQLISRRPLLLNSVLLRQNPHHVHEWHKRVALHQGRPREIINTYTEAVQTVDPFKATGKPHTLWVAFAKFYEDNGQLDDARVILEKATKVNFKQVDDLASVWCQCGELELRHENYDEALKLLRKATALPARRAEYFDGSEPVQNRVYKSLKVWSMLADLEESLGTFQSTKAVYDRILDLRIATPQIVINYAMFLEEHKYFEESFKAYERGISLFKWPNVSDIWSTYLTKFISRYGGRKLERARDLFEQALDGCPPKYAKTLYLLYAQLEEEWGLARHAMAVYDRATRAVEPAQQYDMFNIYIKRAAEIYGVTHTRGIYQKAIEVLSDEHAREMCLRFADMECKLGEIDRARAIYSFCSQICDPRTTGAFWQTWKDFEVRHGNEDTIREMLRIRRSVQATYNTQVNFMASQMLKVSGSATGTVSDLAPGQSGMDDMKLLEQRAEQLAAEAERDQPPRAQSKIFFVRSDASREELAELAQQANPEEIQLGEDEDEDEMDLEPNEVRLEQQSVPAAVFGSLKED
Test: affinity purification with mass spectrometry; bXAB2 captured on M-280 streptavidin beads from high-salt nuclear extracts of P15 bXAB2 livers treated with benzonase and RNase A; BirA livers as control; three biological replicates, nLC-MS/MS

- binding: binds
B4: XRN2 (protein, UniProt Q9DBR1 1-951)
chain: MGVPAFFRWLSRKYPSIIVNCVEEKPKECNGVKIPVDASKPNPNDVEFDNLYLDMNGIIHPCTHPEDKPAPKNEDEMMVAIFEYIDRLFNIVRPRRLLYMAIDGVAPRAKMNQQRSRRFRASKEGMEAAVEKQRVREEILAKGGFLPPEEIKERFDSNCITPGTEFMDNLAKCLRYYIADRLNNDPGWKNLTVILSDASAPGEGEHKIMDYIRRQRAQPNHDPNTHHCLCGADADLIMLGLATHEPNFTIIREEFKPNKPKPCALCNQFGHEVKDCEGLPREKKGKHDELADSLPCAEGEFIFLRLNVLREYLERELTMASLPFPFDVERSIDDWVFMCFFVGNDFLPHLPSLEIREGAIDRLVNIYKNVVHKTGGYLTESGYVNLQRVQMIMLAVGEVEDSIFKKRKDDEDSFRRRQKEKRKRMKRDQPAFTPSGILTPHALGSRNSPGCQVASNPRQAAYEMRMQRNSSPSISPNTSFASDGSPSPLGGIKRKAEDSDSEPEPEDNVRLWEAGWKQRYYKNKFDVDAADEKFRRKVVQSYVEGLCWVLRYYYQGCASWKWYYPFHYAPFASDFEGIADMSSEFEKGTKPFKPLEQLMGVFPAASGNFLPPTWRKLMSDPDSSIIDFYPEDFAIDLNGKKYAWQGVALLPFVDERRLRAALEEVYPDLTPEENRRNSLGGDVLFVGKLHPLRDFILELYQTGSTEPVDVPPELCHGIQGTFSLDEEAILPDQTVCSPVPMLRDLTQNTAVSINFKDPQFAEDYVFKAAMLPGARKPATVLKPGDWEKSSNGRQWKPQLGFNRDRRPVHLDQAAFRTLGHVTPRGSGTSVYTNTALPPANYQGNNYRPLLRGQAQIPKLMSNMRPQDSWRGPPPLFQQHRFERSVGAEPLLPWNRMIQNQNAAFQPNQYQMLGGPGGYPPRRDDHRGGRQGYPREGRKYPLPPPSGRYSWN

- binding: binds
B5: WDR75 (protein, UniProt Q3U821 1-830)
chain: MVEEGVRVVRCGGSRLNFRRAVFSVDSKYIFCVSGDFVKVYSTTTEECVHILHGHTDLVSGILVNPSNHLQLYSCSFDGTIKLWDYVDGILIKTFTIGPKLHAFFIPLHAEDSVFLTISKEEPDIFQLVSVKLPKSTSQDVEARQLTFVLDYINRSPKCIAFGNEGEYVAAVRDFYLSVYFFKKKKTCNFTLPSTKNKKNAKNKFTCVACHPKEDCIASGHMDGKIRLWRNFHSDQKYTYTCLHWHHDMVMDLAFTVTGTSLLSGGRECVLVEWRDGSEKNKEFLPRLGSSIEHISVSPAGDLFCTSHSDNKITVIHRNLDASAVIQGLVKDRSISTGLMVDPRTKALVLNGKPGHLQFYSLQGDKQLYNLDIIQQEYINDEGLTQTELTKAAFGCSGTWLATVEQRQENENELELQMKLWNYSKKTQGFVLNTKIAMPHDDHITALCFNNAESYEKPILVTASRDGHFKVWILTDDSDIYKKAIAWTCDFVGSYHKYQATNCCFSEDGSLLAVSFEEIVTIWDSQTWELKCTFCQRAGKIRHLCFGRLTCSKYLLGTTDNGILCCWNLLSCSIQWSAKLNVRVMEPDPYSDHVAAVAQSSAGSDLFVFKPSEPRPLYIQKNVSREEVQWGVFVPRDVPESFTSETHQWLNRSQFYFLTKSQSLLTFSTKSPEEKLTPTSKQLLAEESLPTTPFSFILGKHRQQQGAKLTETSENELVQLPLTENIPAITELLHTPAHVLPSASFLCSLFVNSLLLSKETKSAEEVPDDVDMEGNKESDDSDEEYDLTEKDKETNNNTDLGEDAIHQLSKSEEKELRKFRKVDYSWLTAL

More lines, now with the values behind:

B1: SNRP40 (protein, UniProt Q6PE01 1-358)
chain: MIEQQKRKGPELPLVPVKRPRHELLLGAAGAGPGAGPQQATPGALLQAGPPRCSSLQAPIMLLSGHEGEVYCCKFHPNGSTLASAGFDRLILLWNVYGDCDNYATLKGHSGAVMELHYNTDGSMLFSASTDKTVAVWDSETGERVKRLKGHTSFVNSCYPARRGPQLVCTGSDDGTVKLWDIRKKAAVQTFQNTYQVLAVTFNDTSDQIISGGIDNDIKVWDLRQNKLTYTMRGHADSVTGLSLSSEGSYLLSNAMDNTVRVWDVRPFAPKERCVKIFQGNVHNFEKNLLRCSWSPDGSKIAAGSADRFVYVWDTTSRRVLYKLPGHAGSINEVAFHPDEPIILSASSDKRLYMGEIQ
- binding: binds

B2: NUP107 (protein, UniProt Q8BH74 1-926)
chain: MDRSGFGGMSSPVIRDAEVTRTARKHSAHKRVLIQANQEDNFGTATPRSQIIPRTPSSFRQPFVTPSSRSLLRHPDISYILGTEGRSPRHTQSSGYLGNLSMVTNLDDSNWAAAFSSQRLGLYTNTEHHSMTEDVNLSTVMLREDDPGEAASMSMFSDFLHSFLKHSSTTVFDLVEEYENICGSQVNILSKIVSRATPGLQKFSKTASMLWLLQQEMVTWRLLASLYRDRIQSSLEEENMFAIAGINASEKMVVETLFQRDSLVRQSQLVVDWLESIAKDEIGEFSDNIEFYAKSVYWENTLHSLKQRQLLSHMGSTRPLVTELDPDAPIRQKLPLDDLDREDEVRLLKYLFTLIRAGMTEEAQRLCKRCGQAWRAATLEGWKLYHDPNVNGGTELEPVEGNPYRRIWKISCWRMAEDELFNKYERAIYAALSGNLKQLLPVCDTWEDTVWAYFRVMVDSLVEQEIRTSVMTQDDSEELPREYMEANWTLEKVFEELQATDKKRVLEENQEHYHIVQKFLILGDVDGLMDEFSKWLSKSGSSLPGHLLRFMTHLILFLRTLGLQTKEEVSIEVLKTYIQLLISEKHTSLIAFYTCHLPQDLAVAQYALFLEGVTEFEQRHQCLELAKEADLDVATITKTVVENICKKDNGEFSHHDLAPSLDTGTTEEDRLKIDVIDWLVFDPAQRAEALRQGNAIMRKFLALKKHEAAKEVFVKIPQDSIAEIYNQWEEQGMESPLPAEDDNAIREHLCIRAYLEAHETFNEWFKHMNSAPQKPTLLSQATFTEKVAYEHREKKYEMDHNIWKGHLDALTADVKEKMYNVLLFVDGGWMVDVREDAEDDPERTHQMVLLRKLCLPMLCFLLHTILHSTGQYQECLQLADMVSSERHKLYLVFSKEELRKLLQKLRESSLMLLDQGLDPLGYEIQS
- binding: binds

B3: NUP133 (protein, UniProt Q8R0G9 1-1155)
chain: MFPSVSSPRTPGPGTRRGPLVGIGPTSTPRASRRGLSLGSAVNSPVLFSPAGRRSSVSSRGTPTRIFPHHSISESVNYDVRVFGSSLPVKIMEALTMAEADEQLSVHVDEGGWACLVCTEKLLIWKIAVSPVTKLSVCKELQLPPSDFHGSADLVALSYAATSGEVHSVQAVSVMVATKEGSIRYWPSLAREDTYSDTCVDLGGEKMCRFLTAVQGGSFILSSVGSQLVRLIPESSGKIHQHVLPQGQGMLSGIGRRVSSLFGILSPTSDLMLASVLWDRGGSSFYTLTSSNISKWELDDSSEKQVHSWDVHRTLKESITDAVWGSESNYEAIKEGVNIQYLDLKQNCDGLLILAAAWHLGDSPCLVYYSVITVEDNGNQMSDAVTVEVTQYNPPFQSEDLIACRLMVPNFSSQMTYLYMENAVFVCSTGTGKFSLPQEKIVFDTQGDGILGAGSCAGVPILFSRNSGLVSVTPRENVSLLAEDLEESLTSSVGGRGSESMVFETTTKNETVAHEDKTKLLKAAFLQYCRKDLGRAQIMADELFSSHTDLDSDPELDKAVTQISVDLIDDYPASDPRWAESVPQEAPGLSNTSLIILHQLEDKMKAHCLLVDFLHQVGLFRRLSSYPIRGTPMSTRLLLCEHAEKLSAAITLKNHHSRLPDLVNSAILLALNKRECEVPNSLTPADVFFREVSQVDTICECLLEHEEQVLREVALVSQEWAEVAIDVNTVLKDMLQAATHYRLNKSSMYSQEEVLGKEPEYVPWTATSGPSGIRTAVMRQHGIILKMVYPQADSKLRNVVMEQLVALIDCFLDSYVSQLKSLEKSSDQERYSSLEVEYLQKRSELLSPLLTLGQYPWAASLAEKYCDFDILVQMCEQTDNQARLQRYMTQFADQNFSDFLFRWYLEKGKRGKLLSQPISQHGQLANFLQAHEHLSWLHEINSQELEKAHTTLLGLANMETRYFAKKKTLLGLSKLAALASDISEDRLQEKIEAMAEQERFLLHQETLPEQLLTERQLSLSAMPVLTAPQLISLYICDENRRANEYDFKKALDLLEYIDEEEDVSIDDLKLEILCRALQRDDWSGSDGKDDPIEVSKDSVFVKILQKLIKDGIQLSEYLPEVTDLLRAEQLGSLKSNSYFEFVLKANYEYYVQGQM
- binding: binds
